The reference is the same well before dosing, and untreated signal decays as well.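 Fibroblast labels denote human fibroblasts, mainly primary ones from uterus (C12385, HUF), lung (H6013), bone (Hs27A), adrenal (HADF) and skin (WS1), plus mammary HMF and breast cancer-associated Hs343T. Cancer cells are basal-like or mesenchymal-like triple-negative breast cancer lines. A hit is a response shift exceeding 3x replicate standard deviation. The tissue of the other fibroblasts is not given here.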
System: HCC1143
Experiment: relative JC-1 red fluorescence (viability) vs pre-drug, coculture with fibroblast (fraction); higher = more viable cancer cells
Description: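 JC-1 labelled TNBC cells cocultured 1:1 (1,500 cells each) with CellTrace Violet stained primary or stromal fibroblasts in 384-well plates in FluoroBrite medium, treated with one of 42 anticancer drugs at 0.1, 1, 10 or 100 uM. JC-1 red fluorescence (mitochondrial integrity in cancer cells only) was read by plate reader every 8 h for 72 h. Values are normalised to each well's pre-drug value. The stock of one drug was tenfold lower, so its dose labels may be too high.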

CC(=O)c1c(C)c2cnc(Nc3ccc(N4CCNCC4)cn3)nc2n(C2CCCC2)c1=O [Palbociclib]
relative JC-1 red fluorescence
Conditions | 8 h | 16 h | 24 h | 32 h | 40 h | 48 h | 56 h | 64 h | 72 h
0.1 µM, coculture fibroblast: C12385 | 0.847 | 0.763 | 0.705 | 0.644 | 0.577 | 0.541 | 0.5 | 0.454 | 0.431
0.1 µM, coculture fibroblast: H6013 | 0.815 | 0.718 | 0.719 | 0.724 | 0.668 | 0.664 | 0.624 | 0.606 | 0.576
0.1 µM, coculture fibroblast: H6019 | 0.8088 | 0.742 | 0.7 | 0.654 | 0.63 | 0.599 | 0.549 | 0.51 | 0.481
0.1 µM, coculture fibroblast: H6076 | 0.796 | 0.832 | 0.761 | 0.664 | 0.638 | 0.605 | 0.558 | 0.523 | 0.515
0.1 µM, coculture fibroblast: H6231 | 0.827 | 0.875 | 0.7782 | 0.61 | 0.6628 | 0.6164 | 0.571 | 0.531 | 0.497
0.1 µM, coculture fibroblast: HADF | 0.7694 | 0.709 | 0.696 | 0.717 | 0.637 | 0.637 | 0.607 | 0.586 | 0.568
0.1 µM, coculture fibroblast: HCFa | 0.785 | 0.671 | 0.651 | 0.642 | 0.553 | 0.523 | 0.482 | 0.453 | 0.429
0.1 µM, coculture fibroblast: HCPF | 0.8037 | 0.8359 | 0.7502 | 0.6247 | 0.6455 | 0.6066 | 0.5754 | 0.5375 | 0.52
0.1 µM, coculture fibroblast: HHSteC | 0.8545 | 0.745 | 0.7173 | 0.681 | 0.613 | 0.589 | 0.546 | 0.511 | 0.4544
0.1 µM, coculture fibroblast: HMF | 0.795 | 0.849 | 0.778 | 0.634 | 0.6751 | 0.6314 | 0.5811 | 0.5414 | 0.498
0.1 µM, coculture fibroblast: HPFa | 0.9334 | 0.8263 | 0.7783 | 0.686 | 0.607 | 0.561 | 0.503 | 0.451 | 0.402
0.1 µM, coculture fibroblast: HUF | 0.873 | 0.766 | 0.695 | 0.622 | 0.574 | 0.542 | 0.491 | 0.456 | 0.426
0.1 µM, coculture fibroblast: Hs5 | 0.891 | 0.901 | 0.865 | 0.848 | 0.805 | 0.787 | 0.767 | 0.742 | 0.745
0.1 µM, coculture fibroblast: Hs27A | 0.732 | 0.66 | 0.672 | 0.705 | 0.603 | 0.615 | 0.566 | 0.538 | 0.497
0.1 µM, coculture fibroblast: Hs343T | 0.7973 | 0.879 | 0.78 | 0.635 | 0.664 | 0.614 | 0.549 | 0.519 | 0.475
0.1 µM, coculture fibroblast: WS1 | 0.8325 | 0.718 | 0.675 | 0.6 | 0.542 | 0.512 | 0.467 | 0.434 | 0.409
1 µM, coculture fibroblast: C12385 | 0.8516 | 0.7577 | 0.7201 | 0.672 | 0.412 | 0.386 | 0.361 | 0.335 | 0.323
1 µM, coculture fibroblast: H6013 | 0.788 | 0.732 | 0.709 | 0.713 | 0.656 | 0.645 | 0.614 | 0.599 | 0.586
1 µM, coculture fibroblast: H6019 | 0.8524 | 0.773 | 0.743 | 0.681 | 0.65 | 0.631 | 0.589 | 0.544 | 0.52
1 µM, coculture fibroblast: H6076 | 0.8193 | 0.793 | 0.771 | 0.746 | 0.71 | 0.704 | 0.689 | 0.6744 | 0.689
1 µM, coculture fibroblast: H6231 | 0.83 | 0.914 | 0.804 | 0.61 | 0.687 | 0.63414 | 0.591 | 0.5532 | 0.5147
1 µM, coculture fibroblast: HADF | 0.79 | 0.724 | 0.716 | 0.733 | 0.64 | 0.623 | 0.603 | 0.571 | 0.592
1 µM, coculture fibroblast: HCFa | 0.822 | 0.749 | 0.708 | 0.696 | 0.621 | 0.593 | 0.55 | 0.519 | 0.497
1 µM, coculture fibroblast: HCPF | 0.819 | 0.842 | 0.803 | 0.663 | 0.711 | 0.673 | 0.623 | 0.592 | 0.571
1 µM, coculture fibroblast: HHSteC | 0.885 | 0.8168 | 0.80031 | 0.778 | 0.7139 | 0.702 | 0.6576 | 0.631 | 0.586
1 µM, coculture fibroblast: HMF | 0.839 | 0.8675 | 0.823 | 0.728 | 0.761 | 0.744 | 0.718 | 0.702 | 0.686
1 µM, coculture fibroblast: HPFa | 0.9287 | 0.849 | 0.814 | 0.732 | 0.675 | 0.646 | 0.589 | 0.547 | 0.507
1 µM, coculture fibroblast: HUF | 0.901 | 0.802 | 0.752 | 0.682 | 0.64 | 0.609 | 0.562 | 0.53 | 0.508
1 µM, coculture fibroblast: Hs5 | 0.8703 | 0.928 | 0.891 | 0.829 | 0.796 | 0.763 | 0.734 | 0.711 | 0.684
1 µM, coculture fibroblast: Hs27A | 0.756 | 0.694 | 0.661 | 0.688 | 0.566 | 0.553 | 0.509 | 0.481 | 0.489
1 µM, coculture fibroblast: Hs343T | 0.819 | 0.8417 | 0.7897 | 0.6852 | 0.679 | 0.643 | 0.59 | 0.561 | 0.5272
1 µM, coculture fibroblast: WS1 | 0.8281 | 0.7477 | 0.732 | 0.672 | 0.6376 | 0.6046 | 0.5679 | 0.537 | 0.52

From the supplement of paper PMC6078165
